Source: patent EP0406992A2, “New non-ionic carboxamide contrast agent” (SCHERING AKTIENGESELLSCHAFT, priority 1989, dated 1991)
At least one structure is not confirmed: it was looked up by name or label, or the drawing left a doubt.

Assay: Osmolality of contrast agent solutions
Assay type: physicochemical

SMILES: CC(=O)N(CC(O)CO)c1c(I)c(C(=O)NCC(O)CO)c(I)c(C(=O)NCC(O)CO)c1I (centres unmarked) [Iohexol]
- Osmolalität von 300 mg I/ml Lösungen wäßrige Lösung (aqueous solution): 650 mOsm
- Osmolalität von 300 mg I/ml Lösungen pharmazeutisch formul. Lösung (pharmaceutically formulated solution): 685 mOsm
